{
  "source": "patent US20110105397A1",
  "about": "“METHOD FOR TREATING HEART FAILURE WITH STRESSCOPIN-LIKE PEPTIDES” (priority 2009, published 2011)",
  "biological_target": "T1, human CRHR2 (Homo sapiens, UniProt Q13324)",
  "T1 construct": "expressed in transfected cells",
  "T1 sequence (Q13324 1-411)": "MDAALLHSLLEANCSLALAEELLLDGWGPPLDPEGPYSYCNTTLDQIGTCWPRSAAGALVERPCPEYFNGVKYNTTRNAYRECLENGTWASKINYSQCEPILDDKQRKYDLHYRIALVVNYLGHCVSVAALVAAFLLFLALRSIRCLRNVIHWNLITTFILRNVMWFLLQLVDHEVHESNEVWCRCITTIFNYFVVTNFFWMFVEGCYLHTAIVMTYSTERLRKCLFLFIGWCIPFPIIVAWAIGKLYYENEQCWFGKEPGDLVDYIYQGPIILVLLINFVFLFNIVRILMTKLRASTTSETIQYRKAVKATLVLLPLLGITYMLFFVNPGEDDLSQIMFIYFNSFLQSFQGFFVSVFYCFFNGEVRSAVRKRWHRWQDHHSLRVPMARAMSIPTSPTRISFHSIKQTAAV",
  "test": "cAMP assay, h-CRHR2 transfected SK-N-MC cells",
  "type": "cell-based",
  "details": "for effect on the h-SCP concentration-effect curve (tested as antagonists): 10 μM; for agonist activity: deletion of five or more amino acids",
  "description": "The concentration required for 50% maximum effect (A50) was 0.4 nM.\nHuman CRHR1 (accession number X72304) or CRHR2 (accession number U34587) were cloned into pcDNA3.1/Zeo expression vector and stably transfected into SK—N-MC cells by electroporation. Cells were maintained in MEM w/Earl's Salt with 10% FBS, 50 I.U. penicillin, 50 μg/ml streptomycin, 2 mM L-glutamine, 1 mM sodium pyruvate and 0.1 mM non-essential amino acids, 600 μg/ml G418. Cells were grown at 37° C. in 5% CO2\nCells were plated in 96-well tissue culture dishes (Biocoat from BD Biosciences) overnight at 50,000 cell/well. Cells were washed with PBS then resuspended in DMEM F-12 without phenol red, containing 10 μM isobutylmethylxanthine (IBMX). Cells were incubated with the peptides at concentrations ranging from 1 pM to 10 μM for 60 min at 37° Celsius. […] Forskolin (10 μM), a direct stimulant of adenylate cyclase, was used as positive control. The assays were stopped by the addition of 0.5 M HCl and mixing by orbital rotation for 2 h at 4° Celsius.\nTo assess the activity of the inventive polypeptide at the CRHR2, an intracellular cAMP measurement test using a Flash plate radioactive assay (Catalog No. Cus56088; Perkin Elmer, Mass., U.S.A.) was employed.\nTransfected SK—N-MC cells were plated in 96-well Biocoat tissue culture dishes (BD Biosciences, San Jose, Calif., U.S.A) overnight at 50,000 cell/well. Cells were first washed with PBS and then suspended with DMEM/F-12 without phenol red, containing […]. Suspended cells were transferred into a 96-well flash plate coated with scintillant fluid. Cells were incubated with peptides ranging from 1 pM to 1 μM, for 60 min, at 37° Celsius. Forskolin at 10 μM was used as positive control. After ligand stimulation, cells were lysed by the addition of 0.5M HCl and mixed by orbital rotation for 2 h at 4° Celsius in order to release intracellular cAMP into the media.\nMedia containing released intracellular cAMP was transferred to a 96-well flash plate coated with scintillant fluid containing an anti-cAMP antibody. In this assay, intracellular cAMP competes with ^125I-labeled cAMP binding to the antibody. To generate a standard curve, cAMP ranging from 2.5 to 250 pmoles/ml was included in the experiment. [^125I]-cAMP was measured on a TopCount scintillation counter (Perkin Elmer, Mass., U.S.A).\nIndividual agonist concentration-response curve data were fitted to the Hill equation, see formula below, using GraphPad Prism (Graphpad Software, La Jolla, Calif., U.S.A.), to provide estimates of agonist concentration needed to generate one-half maximal response (A50), and the maximal asymptote (α) and Hill slope (nH) parameters. In this equation, [A] is the agonist concentration and E is the measured effect:\nFor display purposes the mean fitted parameter estimates were used to generate a single E/[A] curve shown superimposed on the mean experimental data. Potency estimates for agonists, pA50, are expressed as the negative logarithm of the midpoint of each curve and listed with their standard error of measurement (SEM). Logarithm base 10 of the agonist dose ratio (Log DR) values were calculated by subtraction of the test compound pA50 value from the corresponding h-SCP (SEQ ID NO:1) control pA50 value within the same assay batch. The SEM values of the Log DR values are given by the square root of the sum of the squared SEM values of the h-SCP (SEQ ID NO:1) control and test compound pA50 values.\nHuman and rat peptides (see Table 10) were used on the stimulation of h-CRHR1 or h-CRHR2 transfected SK—N-MC cells in the cAMP flash plate assay. Peptides were incubated for 1 hr at 37° Celsius. Curves were calculated using non-linear regression sigmoidal concentration-response analysis calculation in GraphPad Prism. The so obtained pA50 values are shown in Table 11 in addition to literature values. […]",
  "note": "Not every detail of the peptide structures is certain; ends, links or a residue may be inferred. Some compounds share one wording; it may come from a single statement. Where no end group is shown, it is not given here.",
  "data": [
    {"substance": "SLDVPTNIMNLLFNIAKAKNLRAQAAANAHLMAQI-NH2 [SEQ ID NO: 110, SLDVPTNIMNLLFNIAKAKNLRAQAAANAHLMAQI-NH2]", "values": [
      {"measurement": "effect on the h-SCP concentration-effect curve (tested as antagonists)", "result": "None of the peptides had a significant effect"},
      {"measurement": "agonist activity", "result": "complete loss of agonist activity"}
    ]},
    {"substance": "DVPTNIMNLLFNIAKAKNLRAQAAANAHLMAQI-NH2 [SEQ ID NO: 112, DVPTNIMNLLFNIAKAKNLRAQAAANAHLMAQI-NH2]", "values": [
      {"measurement": "effect on the h-SCP concentration-effect curve (tested as antagonists)", "result": "None of the peptides had a significant effect"},
      {"measurement": "agonist activity", "result": "complete loss of agonist activity"}
    ]},
    {"substance": "LDVPTNIMNLLFNIAKAKNLRAQAAANAHLMAQI-NH2 [SEQ ID NO: 111, LDVPTNIMNLLFNIAKAKNLRAQAAANAHLMAQI-NH2]", "values": [
      {"measurement": "effect on the h-SCP concentration-effect curve (tested as antagonists)", "result": "None of the peptides had a significant effect"},
      {"measurement": "agonist activity", "result": "complete loss of agonist activity"}
    ]}
  ]
}
